For one molecule, binding results are on record in PMC5028767.

No constants are given. Whether binding was seen depends on the method and setting. Some results given as binding are weak or reduced against the parent protein; the word gives no strength. Tags and fused reporters may be left off the sequences shown.

This assay concerns the target C. albicans Cdc7 (CaCdc7) fused with the Gal4 DNA binding domain (Candida albicans). Kind of assay: two-hybrid; Gal4 system; BD-CaCdc7 (pGBKT7, Y187) and AD-CaDbf4 (pACT2, AH109) in mated diploid S. cerevisiae; growth on SD lacking leucine, tryptophan and histidine with 2.5 mM 3-AT, and up to 20 mM 3-AT; HIS3 reporter.

B1: C. albicans Dbf4 (CaDbf4) fused with the Gal4 activation domain (protein, UniProt Q5A5B4 1-506)
chain: MSKVEEHESVNNLKRKFPSLAKPRQPLKETNSNIPSPHKRAKIESPSKQQSTQQPQQQPQPQPQPQPQQEKATHKPKKSSHQSKNNDKLAGDEMHEWQQSWRRIMKSSIVYFEGDQQSLEYRKAHKLLRLVGCKVTPFYDNNVTIIISKRPYDSKTEYSPHDIFSNVSKASIKVWNYDKVFRFLKHLGINIQTGVDELAVNTHTILPPSLTNNNEKPDLYNLLKEEKIYGSTDRDPNAKRDDLHYLGKNYLYVYDLTQTVRPIAIREWSDHYPVMQLSLDGKCPFIEDPTDQNSERKRLKRLRKFEANQAHREALRLATYKMINGISMSVHGFTATSTSTDKVDEEEDSTVKEPSEDPRFRQPLNRNSSCMQSKAFEAMASGYNGASNAVQPSMDSNLNSAAAMAGGNGLGPALSQVPSKQLNNLKRRILMKKKTTNTTEKKDKEHASGYCENCRVKYTNFDEHIMTNRHRNFACDDRNFQDIDELIASLRERKSLGNVISNGDYV
B1: the binding result is given as “binds”.
